This is one part of the list. These are further read-outs of the screen, such as a control signal, another cell line or another target. No call is given for them. The list favours compounds with an active or inconclusive main result. Potencies come from curve fits of mixed quality, noted in brackets.
Assay: IkB Signaling
Conditions: ABC-DLBCL IkBa-CBG/CBR dual luciferase ratio (green luciferase fused to IkBa over red control in OCI-Ly3 lymphoma cells), 4 h; measured here: control luc red channel unless noted
In short: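 Luminescence ratio of IκBα-fused green versus native red beetle luciferase in OCI-Ly3 cells, 4 h post-doxycycline with compound; red signal alone, scaled from basal (0%) to zero light (-100%), flagged nonspecific or cytotoxic effects.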

SMILES	AC50
COc1ccc(-c2noc(CN(C)S(=O)(=O)c3c(C)cc(C)cc3C)n2)cc1OC	39.8 µM [falling, single point]
Cc1ccc(-c2nc(CCNC(=O)c3ccc(C)c(C)c3)cs2)cc1	20 µM [falling, partial curve]
c1ccc(Nc2nc(-c3cccnc3)cs2)nc1	5.01 µM [falling, partial curve]
CC(C)(C)OC(=O)N1CCC(c2c(C(=O)NCc3ccccc3)cnn2-c2cccc(F)c2)CC1	12.6 µM [falling, partial curve]
COc1ccccc1-c1nc2n(n1)C(c1ccccc1Cl)C(C(=O)Nc1cccnc1)=C(C)N2 (centres undefined)	20 µM [falling, partial curve]
CCSc1nn(CC(=O)Nc2cccc(CC)c2)c(N)c1S(=O)(=O)c1ccccc1	31.6 µM [falling, single point]
Cc1oc(-c2ccc(Cl)cc2)nc1CN1CCCC(C(=O)NCCc2ccc(Cl)cc2)C1 (centres undefined)	20 µM [falling, partial curve]
COCCCNC(=O)C1CCN(Cc2cc3ccccc3n2Cc2ccccc2C)CC1	12.6 µM [falling, partial curve, poor fit]
Cc1ccc(S(=O)(=O)c2c(O)cc(C)c(NS(=O)(=O)c3ccc(Br)cc3)c2C)cc1	15.8 µM [falling, partial curve]
O=C(CSc1nc2c([nH]c3ccccc32)c(=O)n1-c1ccc(Cl)cc1)N1CCc2ccccc21	1.58 µM [rising, partial curve]
O=C(Cn1ncn2c(cc3sccc32)c1=O)NCCc1ccccc1	6.31 µM [rising, single point]
CCCn1c(NC(=O)c2ccccc2)nc2ccccc21	31.6 µM [rising, partial curve] [measured here: IkB-luc green channel]
C=CCn1c(=O)c2ccccc2n2c(SCC(=O)NCc3cccs3)nnc12	12.6 µM [falling, partial curve]
COc1cc(/C=C/c2nc(C#N)c(N3CCN(C)CC3)o2)cc(OC)c1OC	39.8 µM [falling, single point]
CN(C(=O)c1ccc2c(c1)N(Cc1cccc(Cl)c1)C(=O)c1ccccc1S2(=O)=O)C1CCCCC1	12.6 µM [falling, partial curve, poor fit]
COCCNC(=O)c1cnc2sc(N3CCCCC3)nn2c1=O	39.8 µM [rising, single point]
CSc1cccc(NC(=O)C2CCN(c3nc4ccccc4[nH]3)CC2)c1	25.1 µM [falling, partial curve]
Cc1ccc(Cn2c(SCc3ccc(C(=O)NC4CCCCC4)cc3)nc3ccncc32)cc1	12.6 µM [falling, partial curve]
CCc1ccc(NC(=O)Cn2c(=O)n(-c3ccc(Cl)c(Cl)c3)c(=O)c3c(C)c(C)sc32)cc1	0.2 µM [rising, full curve, poor fit]
COc1ccc(Cl)c2sc(NC(=O)c3ccc(S(=O)(=O)N4CCOCC4)cc3)nc12	0.398 µM [falling, full curve]

SMILES	AC50
Cc1c(-c2nc(-c3ccccc3)no2)nnn1-c1ccc(F)c(Cl)c1	7.94 µM [falling, partial curve]
O=S(=O)(Nc1ccc(-c2cn3ccsc3n2)cc1)c1ccc2c(c1)OCCO2	15.8 µM [falling, partial curve]
COc1ccc(NC(=O)c2c(NCc3cccs3)sc3c2CCC(C)C3)c(OC)c1 (centres undefined)	31.6 µM [falling, single point]
O=C(CSc1nnc(-c2ccccc2Cl)o1)N1CCCc2ccccc21	31.6 µM [falling, single point]
Cc1c(C(=O)N(Cc2ccccc2F)C2CCS(=O)(=O)C2)oc2ccccc12 (centres undefined)	10 µM [falling, partial curve]
Cc1nn(C)c2c1c(C(F)(F)F)cc(=O)n2C(C)C(=O)Nc1ccccc1F (centres undefined)	39.8 µM [falling, single point]
CCOc1ccc(C(=O)c2cn(CC(=O)Nc3ccc(Cl)cc3)c3cc4c(cc3c2=O)OCO4)cc1	6.31 µM [falling, partial curve]
COc1ccc(S(=O)(=O)NCC(c2cccs2)S(=O)(=O)c2ccccc2)cc1OC (centres undefined)	3.98 µM [rising, partial curve]
COc1ccc(-c2nnc(SCC(=O)Nc3cccc(C(F)(F)F)c3)s2)cc1	12.6 µM [rising, partial curve]
CCS(=O)(=O)c1ncc(N(Cc2ccccc2)Cc2ccco2)c(C(=O)Nc2cccc(Cl)c2C)n1	3.16 µM [falling, full curve]
COc1ccccc1C(=O)Nc1ccc2nc(SCC(=O)N(C)c3ccccc3)sc2c1	1.58 µM [falling, full curve]
CCCCCC(=O)Nc1ccccc1N1CCN(c2ccccc2)CC1	31.6 µM [falling, single point]
CCOc1ccc(CNC(=O)c2ccc3c(c2)c(C)c(C)n3Cc2ccccc2)cc1OC	10 µM [falling, full curve]
O=C(COc1ccc(Cl)cc1)NCc1nnc(SCC(=O)Nc2ccc3c(c2)OCCO3)o1	12.6 µM [falling, partial curve]
COC(=O)c1ccc(Cl)cc1NC(=O)Nc1nnc(N2CCCC2)s1	15.8 µM [falling, partial curve]
COc1ccc(CCNC(=O)c2ccc3c(c2)N(Cc2ccccc2)C(=O)c2ccccc2S3=O)cc1OC (centres undefined)	0.501 µM [rising, full curve]
Fc1ccc(C(c2nnc(-c3ccccc3)o2)N2CCN(c3cccc(Cl)c3)CC2)cc1 (centres undefined)	7.94 µM [falling, full curve]
COC(=O)c1ccc(NC(=O)c2cccc(OC)c2)cc1	12.6 µM [falling, partial curve]
CCOC(=O)C(CC)n1nnc2sc(-c3ccccc3)cc2c1=O (centres undefined)	25.1 µM [falling, single point]

Some values from the list:
Value of Fc1ccc(C(c2nnc(-c3ccccc3)o2)N2CCN(c3cccc(Cl)c3)CC2)cc1 (centres undefined) under AC50: 7.94 µM [falling, full curve]
Value of COC(=O)c1ccc(Cl)cc1NC(=O)Nc1nnc(N2CCCC2)s1 under AC50: 15.8 µM [falling, partial curve]
Value of Cc1nn(C)c2c1c(C(F)(F)F)cc(=O)n2C(C)C(=O)Nc1ccccc1F (centres undefined) under AC50: 39.8 µM [falling, single point]

From PubChem BioAssay AID445 (National Center for Advancing Translational Sciences (NCATS), 2006)
